From publication PMC7269909
These are yes or no findings as the source states them, for the method shown. Binding seen in cells or lysates may run through a third protein. Here binding means that the protein was enriched with, or labelled near, the bait; the list need not be complete.

The chains behind the UniProt entries cited, without tags or fusion partners.
UniProt Q8TB45: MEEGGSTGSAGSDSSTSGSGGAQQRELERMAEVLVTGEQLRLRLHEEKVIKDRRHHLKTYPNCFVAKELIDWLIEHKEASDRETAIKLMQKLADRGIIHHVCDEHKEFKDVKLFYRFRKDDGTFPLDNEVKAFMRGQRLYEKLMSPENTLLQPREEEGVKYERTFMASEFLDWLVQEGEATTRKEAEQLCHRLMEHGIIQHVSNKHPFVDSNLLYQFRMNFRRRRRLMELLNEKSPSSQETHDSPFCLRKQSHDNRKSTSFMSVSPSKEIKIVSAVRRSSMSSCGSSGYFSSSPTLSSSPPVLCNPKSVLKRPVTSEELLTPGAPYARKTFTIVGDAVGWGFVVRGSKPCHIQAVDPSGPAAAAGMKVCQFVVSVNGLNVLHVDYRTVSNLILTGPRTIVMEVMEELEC

Target: T1, LRRC4 (bait of the CoIP combined with mass spectrometry) (human) (UniProt Q9HBW1)
T1 sequence: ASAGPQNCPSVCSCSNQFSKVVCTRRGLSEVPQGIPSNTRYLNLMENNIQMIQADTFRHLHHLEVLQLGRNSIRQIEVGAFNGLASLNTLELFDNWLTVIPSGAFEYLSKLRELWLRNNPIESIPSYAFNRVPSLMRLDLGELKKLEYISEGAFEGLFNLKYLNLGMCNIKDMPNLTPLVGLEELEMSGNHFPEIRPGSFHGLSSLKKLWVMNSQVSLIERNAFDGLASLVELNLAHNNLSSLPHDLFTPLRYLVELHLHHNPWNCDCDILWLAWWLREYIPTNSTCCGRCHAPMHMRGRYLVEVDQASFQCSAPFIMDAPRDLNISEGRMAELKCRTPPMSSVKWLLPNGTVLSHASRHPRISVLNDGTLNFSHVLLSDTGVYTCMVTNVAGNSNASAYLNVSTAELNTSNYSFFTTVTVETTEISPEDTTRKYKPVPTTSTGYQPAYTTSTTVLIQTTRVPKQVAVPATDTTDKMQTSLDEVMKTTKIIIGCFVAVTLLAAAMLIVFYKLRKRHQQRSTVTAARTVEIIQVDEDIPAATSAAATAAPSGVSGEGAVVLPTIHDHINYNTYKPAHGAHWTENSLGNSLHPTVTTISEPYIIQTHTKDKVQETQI
Assay: affinity purification with mass spectrometry; co-immunoprecipitation of LRRC4 combined with mass spectrometry

- binding: binds
Substance: DEPTOR (identified by mass spectrometry) (from UniProt Q8TB45 1-409)
